# Test results taken from PubChem BioAssay AID651640 (Broad Institute, 2012).
# Values joined by “and” are separate entries in the source; they are usually repeats but may differ in a detail not shown here. Equal values may be shown once. About 6,000 (1.7%) of roughly 350,000 compounds were called active. Inconclusive means that the source gave no clear call. Such entries were picked first, then a sample of the others. Cut-off read from the data, not from the text of the source: active = CPE inhibition above about 20% (passing the limit was not always enough); inconclusive = no clear call, values can overlap the other calls; tested in BHK-21 cells.
# Experiment: protection of cells from dengue 2 killing – plate reader, single concentration, primary screen (AID 651640);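 note: 0% = median of neutral control wells and 100% = median of positive control wells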
# Conditions: DENV2-infected cells, cytopathic effect rescue, at 9.99 µM, stronger effect = higher value
row,SMILES,CPE inhibition
1,CCOC(=O)C1(c2ccccc2)CCN(Cc2cccc(C(=O)O)c2)CC1,inconclusive: 29.4%
2,CC=Cc1ccc2n(c1=O)C[C@H]1[C@H](CO)[C@@H](C(=O)OC)[C@@H]2N1CC1CCCC1 (mixture of isomers),inconclusive: 24.7%
3,C/C(=N\Nc1ccccc1)c1c(O)n(-c2ccccc2)c(=O)[nH]c1=O,inconclusive: 22.5%
4,CN1CCN(Cc2cc3c(cc2[N+](=O)[O-])OCO3)CC1,inconclusive: 24.3%
5,COc1ccc(C#Cc2ccc([C@@H]3[C@@H](CO)N4CCCCN(C(=O)Cc5cccnc5)C[C@@H]34)cc2)cc1,inactive: -2.54%
6,Cc1ccccc1-[n+]1c(-c2ccccc2)cc(-c2ccccc2)cc1-c1ccccc1,active: 76.3%
7,Fc1ccc(C(OCCN2CCN(CCCc3ccccc3)CC2)c2ccc(F)cc2)cc1,inactive: -5.65%
8,O=C1NC2C(=CC(O)C(O)C2O)c2cc3c(c(O)c21)OCO3 (stereo not drawn),active: 87.6%
9,COc1cc2c(cc1OC)[C@@]13CCN4CC5=CCO[C@H]6CC(=O)N2[C@H]1[C@H]6[C@H]5C[C@H]43,inactive: 3.04%
10,CN1CCN(Cc2cn(C)c3ccccc23)CC1CCO (stereo not drawn),inconclusive: 45.7%
11,COc1cc(C)c(CNCCc2c[nH]c3ccccc23)cc1C,inconclusive: 24.6%
12,O=S(=O)(NC1CCCCCCC1)OCC(Cl)(Cl)Cl,active: 33.9%
13,O=C(c1cc(Cl)cc(Cl)c1)N1Cc2ccccc2-n2nncc2C1,inconclusive: 65.2%
14,COC(=O)C1=C(c2c(C)noc2C)C[C@@H]2CC[C@H]1N2C(=O)N1CCC(C)CC1,active: 51.2%
15,C=CCn1c(O)c(C(C)=Nc2cccc(C(F)(F)F)c2)c(=O)[nH]c1=O,inconclusive: 20.1%
16,Oc1ccc2c3c1OC1[C@H](O)CC[C@@]4(O)[C@@H](C2)N(CC2CC2)CC[C@]314 (stereo partly drawn),inconclusive: 37.5%
17,CCC(C)C1NC(=O)C(NC(=O)C(CC(C)C)N(C)C(=O)C2CCCN2C(=O)C(C)O)C(C)OC(=O)C(Cc2ccc(OC)cc2)N(C)C(=O)C2CCCN2C(=O)C(CC(C)C)NC(=O)[C@H](C)C(=O)[C@H](C(C)C)OC(=O)CC1O (stereo partly drawn),inconclusive: 35.1%
18,COC(=O)C1=C(c2ccccc2)C[C@@H]2CC[C@H]1N2C(=O)N1CCOCC1,active: 38.1%
19,O=C(O)C[C@@H]1CC[C@H]2NC[C@H](O)COC[C@@H]2O1,inconclusive: 21.8%
20,CC12CCC3C(CCC4(O)CC(O)CCC34C=O)C1(O)CCC2C1=CC(=O)OC1 (stereo not drawn),inconclusive: 47.8%
21,CCC(c1nnnn1-c1ccc2c(c1)OCCO2)N1CCC2(CC1)C(=O)NCN2c1ccccc1 (stereo not drawn),inconclusive: 48.6%
22,Cc1cc(Br)cn2c(CC(=O)N3CCCCC3)c(-c3ccc(F)cc3)nc12,inactive: 8.02%
23,CC1[C@H]2Cc3ccc(O)cc3[C@]1(C)CCN2C (stereo partly drawn),inconclusive: 38.9%
24,O=C(C1CC1)N1C[C@@H]2N[C@H](C1)[C@@H]2c1ccc(-c2ccncc2)cc1,inconclusive: 56%

# 3 structures already listed, ordered by number of heavy atoms, largest number first.
row,SMILES,CPE inhibition
14,COC(=O)C1=C(c2c(C)noc2C)C[C@@H]2CC[C@H]1N2C(=O)N1CCC(C)CC1,active: 51.2%
13,O=C(c1cc(Cl)cc(Cl)c1)N1Cc2ccccc2-n2nncc2C1,inconclusive: 65.2%
23,CC1[C@H]2Cc3ccc(O)cc3[C@]1(C)CCN2C (stereo partly drawn),inconclusive: 38.9%

# Next results.

row,SMILES,CPE inhibition
1,CCN1C[C@]2(COC)CC[C@H](OC)[C@@]34C1[C@]1(OCO[C@@]15C[C@H](OC)[C@H]1C[C@@H]3[C@@H]5[C@H]1OC)[C@@H](O)[C@H]24,inactive: 4.39%
2,COc1ccc(CC(C)NCCc2ccc(OC)c(OC)c2)cc1 (stereo not drawn),inconclusive: 32.6%
3,c1ccc2nc(N3CCNCC3)ccc2c1,inactive: 2.28% and inactive: -4.26%
4,COc1ccc(OC(=O)N(C)C[C@@H]2OCc3cnnn3CCCC(=O)N([C@H](C)CO)C[C@@H]2C)cc1,inconclusive: 21.9% and inconclusive: 37.3%
5,COC(=O)C1=C(c2ccc(-c3ccccc3)c(F)c2)C[C@@H]2CC[C@H]1N2C(=O)NCCc1ccccc1,active: 30.5%
6,CCCN1[C@@H]2Cn3c(ccc(-c4ccc(OC)cc4)c3=O)[C@H]1[C@@H](C(=O)OC)[C@@H]2CO,inactive: 2.17%
7,COc1ccc(SCC2CN(C)CCC2c2ccc(F)cc2)cc1 (stereo not drawn),active: 25%
8,O=C(NCC1=C(c2cccc3ccccc23)C[C@@H]2CC[C@H]1N2Cc1ccco1)c1ccncc1,inconclusive: 43.5%
9,O=S(=O)(c1ccc2ccccc2c1)N1Cc2cc(Br)ccc2-n2nncc2C1,inconclusive: 27.2%
10,O=C(Cc1ccccn1)N1CCCCN2[C@H](C1)[C@@H](c1ccc(-c3ccccc3F)cc1)[C@@H]2CO,inactive: -11.5%
11,COC(=O)[C@H]1[C@H](CO)[C@H]2Cn3c(ccc(-c4ccccc4)c3=O)[C@@H]1N2S(=O)(=O)c1ccccc1C,inactive: 1.32%
12,CC12CCC(O)CC1CCC1C2CCC2(C)C(C3=CC(=O)OC3)C(O)CC12O (stereo not drawn),inconclusive: 37.6%
13,CCCC[N+]12C3C[C@H](C4[C@H](O)[C@]5(C[C@@H]41)c1ccccc1N(C)[C@@H]35)[C@H](CC)[C@H]2O (stereo partly drawn),inconclusive: 67.1%
14,C[C@H](NC(=O)N1C[C@H]2C[C@@H](C1)c1cccc(=O)n1C2)C(=O)Nc1cccc(F)c1,inconclusive: 74.5%
15,O=C(Cc1ccccc1)N1CCN(Cc2ccc(Cl)cc2)CC1,inconclusive: 29.2%
16,CCN1CCN(Cc2cccnc2)CC1,inconclusive: 20.3%
17,Cc1cc(C=C(C#N)C#N)ccc1N1CCCC1,inconclusive: 23%
18,CCN1CCC(NCC2CCCCC2)CC1,active: 32.4%
19,Cc1ccc2c(c1)C1C[N+](C)(CC(=O)c3ccc(Cl)cc3Cl)CCC1N2C(=O)c1ccc(F)cc1 (stereo not drawn),inconclusive: 40%
20,CC(=O)OC1CCC2(C)C(CCC3C2CC(=O)C2(C)C3CC(N3CC3)C2C(C)=O)C1 (stereo not drawn),inconclusive: 51%
21,S=P(NCCNP(=S)(N1CC1)N1CC1)(N1CC1)N1CC1,inconclusive: 50.9%
22,CN(Cc1ccccc1)C1CCCN(C(=O)COc2ccccc2Cl)C1 (stereo not drawn),inconclusive: 44.6%
23,COc1ccc(OC(=O)N(C)C[C@H]2OCc3cnnn3CCCC(=O)N([C@@H](C)CO)C[C@@H]2C)cc1,inconclusive: 46.1%
24,COC(=O)[C@H]1[C@H](CO)[C@H]2Cn3c(ccc(-c4ccc(OC)cc4)c3=O)[C@@H]1N2C(=O)c1ccccc1F,inactive: 6.04%
